In PMC7857730:
No constants are given. Whether binding was seen depends on the method and setting. In cells and extracts the contact can be indirect. A yes stands for co-enrichment or nearness to the bait. Other partners may have been found. Tags and fused reporters may be left off the sequences shown.

Biological target: T1, Iml1-myc (S. pombe) (UniProt O74788)
T1 sequence: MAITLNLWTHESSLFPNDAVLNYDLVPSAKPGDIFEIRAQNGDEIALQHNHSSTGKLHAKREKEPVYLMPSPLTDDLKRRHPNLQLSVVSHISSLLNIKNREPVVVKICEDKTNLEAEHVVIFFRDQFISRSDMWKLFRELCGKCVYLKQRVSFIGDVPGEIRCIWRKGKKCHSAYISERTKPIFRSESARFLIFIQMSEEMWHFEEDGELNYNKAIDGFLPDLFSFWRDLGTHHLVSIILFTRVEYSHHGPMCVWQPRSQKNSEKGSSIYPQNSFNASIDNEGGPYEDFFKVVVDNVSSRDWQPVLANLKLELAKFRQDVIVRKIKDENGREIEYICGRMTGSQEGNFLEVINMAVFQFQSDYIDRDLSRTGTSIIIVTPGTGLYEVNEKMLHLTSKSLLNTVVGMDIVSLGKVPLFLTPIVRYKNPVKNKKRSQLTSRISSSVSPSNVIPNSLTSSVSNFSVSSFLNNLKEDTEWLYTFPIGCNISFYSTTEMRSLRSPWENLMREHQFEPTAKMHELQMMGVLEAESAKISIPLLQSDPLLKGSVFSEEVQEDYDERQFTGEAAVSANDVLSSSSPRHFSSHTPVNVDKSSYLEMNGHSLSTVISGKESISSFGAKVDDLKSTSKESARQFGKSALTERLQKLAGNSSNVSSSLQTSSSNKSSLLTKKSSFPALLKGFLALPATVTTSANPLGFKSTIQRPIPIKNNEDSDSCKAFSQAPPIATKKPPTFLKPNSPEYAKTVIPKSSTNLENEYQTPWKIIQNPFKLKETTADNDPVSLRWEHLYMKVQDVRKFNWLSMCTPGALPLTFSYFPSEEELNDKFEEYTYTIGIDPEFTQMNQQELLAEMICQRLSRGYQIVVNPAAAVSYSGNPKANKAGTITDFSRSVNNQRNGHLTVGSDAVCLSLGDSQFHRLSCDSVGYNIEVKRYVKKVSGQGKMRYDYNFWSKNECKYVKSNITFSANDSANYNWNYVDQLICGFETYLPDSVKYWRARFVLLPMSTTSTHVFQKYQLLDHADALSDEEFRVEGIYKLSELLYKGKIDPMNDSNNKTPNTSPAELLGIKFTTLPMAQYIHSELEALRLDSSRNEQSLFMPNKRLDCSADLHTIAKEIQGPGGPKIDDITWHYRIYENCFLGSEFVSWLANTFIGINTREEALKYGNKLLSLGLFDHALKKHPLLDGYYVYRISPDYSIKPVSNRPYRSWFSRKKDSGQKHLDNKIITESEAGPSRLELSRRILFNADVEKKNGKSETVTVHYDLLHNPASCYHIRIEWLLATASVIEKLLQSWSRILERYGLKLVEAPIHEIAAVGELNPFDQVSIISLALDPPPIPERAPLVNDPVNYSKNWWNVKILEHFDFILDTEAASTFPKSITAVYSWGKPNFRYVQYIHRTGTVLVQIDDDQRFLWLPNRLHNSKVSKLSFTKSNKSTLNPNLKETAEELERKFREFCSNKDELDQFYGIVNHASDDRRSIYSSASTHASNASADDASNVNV
Assay: affinity purification with mass spectrometry

Substance | binding
FLAG-Npr2 (S. pombe) | binds
FLAG-Npr3 (S. pombe) | binds
